# The list does not hold the whole screen: it is rich in T/C values a quarter to a half above the control, in often repeated tests (any T/C) and in doses without a T/C. Other doses and runs of a compound stand elsewhere. T/C gives the treated animals as a percentage of the vehicle group. Some entries give survivors of the animals treated and no T/C: the source holds a T/C of zero for them, seemingly a mark for toxic or unscored doses. Some doses without a T/C left all or most animals alive at the check, yet need not have been tolerated: the source hardly ever lists a survival T/C far under the control, and the zero likely stands for such cases as well. Counts of survivors are from the toxicity check (mostly the fifth day) where no day follows; animals may have died later. Schedules are NCI's codes, read here as Q, the interval in days (D) or hours (H), X, the number of doses. Some entries hold several experiments; their values stand side by side, smallest first. Where survival is the endpoint, this PubChem deposit counts one and a half times the control or more as active, and values a quarter to a half above the control carry no call in these data; other NCI protocols may use other cut-offs.
# Tested on: P388 leukemia ip, CD2F1 mice, survival T/C
# Test: NCI In Vivo Anticancer Drug Screen. Data for tumor model P388 Leukemia (intraperitoneal) in CD2F1 (CDF1) mice
# Settings: T/C endpoint: median survival time, higher T/C = longer survival
# [1] = dose: 50.0 mg/kg/injection, schedule: Q01DX009 (ip), vehicle: saline
# [2] = dose: 100.0 mg/kg/injection, schedule: Q01DX005 (ip), vehicle: Klucel (hydroxypropylcellulose) (HPC)
# [3] = dose: 200.0 mg/kg/injection, schedule: Q01DX005 (ip), vehicle: Klucel (hydroxypropylcellulose) (HPC)
# [4] = dose: 50.0 mg/kg/injection, schedule: Q01DX009 (ip), vehicle: saline with Tween-80
# [5] = dose: 100.0 mg/kg/injection, schedule: Q01DX009 (ip), vehicle: saline with Tween-80
# [6] = dose: 200.0 mg/kg/injection, schedule: Q01DX009 (ip), vehicle: saline with Tween-80
# [7] = dose: 200.0 mg/kg/injection, schedule: Q01DX009 (ip), vehicle: saline
# [8] = dose: 240.0 mg/kg/injection, schedule: Q01DX005 (ip), vehicle: saline with Tween-80
# [9] = dose: 50.0 mg/kg/injection, schedule: Q01DX005 (ip), vehicle: Klucel (hydroxypropylcellulose) (HPC)
# [10] = dose: 30.0 mg/kg/injection, schedule: Q01DX005 (ip), vehicle: saline with Tween-80
# [11] = dose: 60.0 mg/kg/injection, schedule: Q01DX005 (ip), vehicle: saline with Tween-80
# [12] = dose: 100.0 mg/kg/injection, schedule: Q01DX005 (ip), vehicle: saline with Tween-80
# [13] = dose: 200.0 mg/kg/injection, schedule: Q01DX005 (ip), vehicle: saline with Tween-80
smiles,measurement,setting,value
c1ccc2c(c1)[As]=c1ccccc1=[As]2 (stereo unspecified),T/C,"dose: 3.12 mg/kg/injection, schedule: Q01DX009 (ip), vehicle: saline",139 % of control
same,T/C,"dose: 6.25 mg/kg/injection, schedule: Q01DX009 (ip), vehicle: saline",145 % of control
same,survivor count,"dose: 12.5 mg/kg/injection, schedule: Q01DX009 (ip), vehicle: saline",6 of 6
same,survivor count,"dose: 25.0 mg/kg/injection, schedule: Q01DX009 (ip), vehicle: saline",1 of 6
same,survivor count,[1],0 of 6
Cc1cc(OC(=O)Nc2ccc(C(C)C)cc2)c(C)cc1Br,survivor count,"dose: 50.0 mg/kg/injection, schedule: Q01DX009 (ip), vehicle: saline + alcohol",6 of 6
NC(Cc1cccc2ccccc12)C(=O)O (stereo unspecified),survivor count,[2],1 of 5
same,survivor count,[3],0 of 5
COc1ccc2c(Cl)cc(NC(=S)Nc3ccccc3)nc2c1,survivor count,"dose: 50.0 mg/kg/injection, schedule: Q01DX009 (ip), vehicle: Klucel (hydroxypropylcellulose) (HPC)",0 of 6
same,survivor count,"dose: 100.0 mg/kg/injection, schedule: Q01DX009 (ip), vehicle: Klucel (hydroxypropylcellulose) (HPC)",0 of 6
same,survivor count,"dose: 200.0 mg/kg/injection, schedule: Q01DX009 (ip), vehicle: Klucel (hydroxypropylcellulose) (HPC)",0 of 6
CCC(=N/NC(=S)NCCN1CCCCC1)/C(CC)=N\NC(=S)NCCN1CCCCC1,survivor count,"dose: 12.5 mg/kg/injection, schedule: Q01DX009 (ip), vehicle: saline with Tween-80",3 of 6
same,survivor count,[4],0 of 6
same,survivor count,[5],0 of 6
same,survivor count,[6],0 of 6
COc1c(Br)cnc2ccccc12,survivor count,"dose: 400.0 mg/kg/injection, schedule: Q01DX009 (ip), vehicle: distilled water + Tween-80",2 of 6
COc1cc(C(=O)O)c2c(c1C)OC(=O)c1c(C)cc(O)c(C=O)c1O2,survivor count,[1],3 of 3
same,survivor count,"dose: 100.0 mg/kg/injection, schedule: Q01DX009 (ip), vehicle: saline",0 of 3
same,survivor count,[7],0 of 3
N#Cc1ccc(OC(=O)Nc2ccc(F)cc2)cc1,survivor count,[8],4 of 6
CNC(=N)c1ccc(NC(=N)c2ccc(NC(=N)c3ccc(NC(=N)c4ccc(C(=N)NC)cc4)cc3)cc2)cc1,survivor count,"dose: 30.0 mg/kg/injection, schedule: Q01DX009 (ip), vehicle: saline with Tween-80",2 of 6
O=c1cccc2n1C[C@H]1C[C@@H]2CN2CCCC[C@H]12,survivor count,"dose: 25.0 mg/kg/injection, schedule: Q01DX005 (ip), vehicle: saline",0 of 6
same,survivor count,"dose: 50.0 mg/kg/injection, schedule: Q01DX005 (ip), vehicle: saline",0 of 6
same,survivor count,"dose: 100.0 mg/kg/injection, schedule: Q01DX005 (ip), vehicle: saline",0 of 6
same,survivor count,"dose: 200.0 mg/kg/injection, schedule: Q01DX005 (ip), vehicle: saline",0 of 6
BrCc1cn(Cc2ccccc2)nn1,survivor count,[7],0 of 6
CCN(CC)CCNC(=O)c1ccc(NCN2C(=O)NC(c3ccccc3)(c3ccccc3)C2=O)cc1,survivor count,[8],5 of 6
CCN(CC)C(=S)n1c(=S)nc(N(CC)CC)sc1=S,survivor count,[9],2 of 6
same,survivor count,[2],0 of 6
same,survivor count,[3],0 of 6
O=C1C=CC(=O)N1CC[P+](c1ccccc1)(c1ccccc1)c1ccccc1,survivor count,"dose: 50.0 mg/kg/injection, schedule: Q01DX009 (ip), vehicle: water",4 of 6
same,survivor count,"dose: 100.0 mg/kg/injection, schedule: Q01DX009 (ip), vehicle: water",0 of 6
same,survivor count,"dose: 200.0 mg/kg/injection, schedule: Q01DX009 (ip), vehicle: water",0 of 6
Oc1ccccc1C=Nc1cccnc1,survivor count,[4],4 of 6
same,survivor count,[5],1 of 6
same,survivor count,[6],0 of 6
same,survivor count,"dose: 400.0 mg/kg/injection, schedule: Q01DX009 (ip), vehicle: saline with Tween-80",0 of 6
COc1c2c(cc3c1OCO3)[C@]13C=C[C@H](OC)C[C@H]1N(C2)CC3O (stereo partly specified),survivor count,"dose: 2.5 mg/kg/injection, schedule: Q01DX009 (ip), vehicle: saline with Tween-80",1 of 6
same,survivor count,"dose: 5.0 mg/kg/injection, schedule: Q01DX001 (ip), vehicle: saline",3 of 6
same,survivor count,"dose: 10.0 mg/kg/injection, schedule: Q01DX001 (ip), vehicle: saline with Tween-80",1 of 6
same,survivor count,"dose: 20.0 mg/kg/injection, schedule: Q01DX001 (ip), vehicle: saline with Tween-80",0 of 6
same,survivor count,"dose: 100.0 mg/kg/injection, schedule: Q01DX001 (ip), vehicle: saline with Tween-80",0 of 6
same,survivor count,"dose: 200.0 mg/kg/injection, schedule: Q01DX001 (ip), vehicle: saline with Tween-80",0 of 6
same,survivor count,"dose: 400.0 mg/kg/injection, schedule: Q01DX001 (ip), vehicle: saline with Tween-80",0 of 6
CCCCCCC(O)CCCCCCCCCCC(N)=O (stereo unspecified),survivor count,[9],5 of 5
same,survivor count,[2],5 of 5
same,survivor count,[3],5 of 5
CCOC(=O)NCCCCCCNC(=O)OCC,survivor count,"dose: 400.0 mg/kg/injection, schedule: Q01DX005 (ip), vehicle: Klucel (hydroxypropylcellulose) (HPC)",0 of 6 and 4 of 6
O=NN(CCCl)C(=O)Nc1ccc(CCO)cc1,T/C,"dose: 0.33 mg/kg/injection, schedule: Q01DX009 (ip), vehicle: saline + alcohol",145 % of control
C[C@@H]1C(=O)O[C@H]2[C@H]1CC[C@@]1(C)C[C@@H](I)C(=O)[C@@H](C)[C@H]21,survivor count,"dose: 240.0 mg/kg/injection, schedule: Q01DX005 (ip), vehicle: Klucel (hydroxypropylcellulose) (HPC)",0 of 6
CCCC(=O)NC1CCc2cc(OC)c(OC)c(OC)c2-c2ccc(OC)c(=O)cc21 (stereo unspecified),T/C,"dose: 0.31 mg/kg/injection, schedule: Q01DX009 (ip), vehicle: Klucel (hydroxypropylcellulose) (HPC)",139 and 142 % of control
same,survivor count,"dose: 2.5 mg/kg/injection, schedule: Q01DX009 (ip), vehicle: Klucel (hydroxypropylcellulose) (HPC)",3 of 5
same,survivor count,"dose: 5.0 mg/kg/injection, schedule: Q01DX009 (ip), vehicle: Klucel (hydroxypropylcellulose) (HPC)",0 of 5
CC[CH2][Sn]([CH2]CC)([CH2]CC)[CH2]CCBr,survivor count,[6],1 of 6
N=C(N)SCC[n+]1cccc2cccc(O)c21,survivor count,"dose: 400.0 mg/kg/injection, schedule: Q04DX002 (ip), vehicle: saline",1 of 6
N#CC(=O)Nc1cc(Cl)cc(Cl)c1,survivor count,[10],2 of 6
same,survivor count,[11],0 of 6
same,survivor count,"dose: 120.0 mg/kg/injection, schedule: Q01DX005 (ip), vehicle: saline with Tween-80",0 of 6
same,survivor count,[8],0 of 6
C[N+](C)(C)c1ccc(/C=C/[N+](=O)[O-])cc1,survivor count,[4],3 of 6
COC(=O)/C=C(\C)NC1CC(OC2C[C@](O)(C(C)=O)Cc3c(O)c4c(c(O)c32)C(=O)c2c(OC)cccc2C4=O)OC(C)C1O (stereo partly specified),T/C,"dose: 25.0 mg/kg/injection, schedule: Q04DX003 (ip), vehicle: saline with Tween-80",130 and 133 % of control
same,T/C,"dose: 40.0 mg/kg/injection, schedule: Q04DX003 (ip), vehicle: saline with Tween-80",149 % of control
Cc1[nH]c(=O)nc(Nc2ccc(Cl)cc2)c1C(=O)N1CCN(CCO)CC1,survivor count,[10],6 of 6
same,survivor count,[11],6 of 6
CC1C2CCC(C2)C1CNCC1C2CCC(C2)C1C (stereo unspecified),survivor count,[12],0 of 5
same,survivor count,[13],0 of 5
COC(=O)/C(C#N)=C(/SC)N(C)C,survivor count,[6],2 of 6
C/C(=N/NC(=S)N1CC2CCC(CC2)C1)c1cnccn1,survivor count,"dose: 25.0 mg/kg/injection, schedule: Q01DX005 (ip), vehicle: saline with Tween-80",5 of 5
same,survivor count,"dose: 50.0 mg/kg/injection, schedule: Q01DX005 (ip), vehicle: saline with Tween-80",4 of 5
same,survivor count,[12],0 of 5
same,survivor count,[13],0 of 5

# — PubChem BioAssay AID330 (DTP/NCI, 2004)
